For 1 molecule, binding results are on record in article doi:10.1101/2020.06.29.177584.

Amino acid sequences for entries named in this document (tags omitted). A change or cut given only in a name is not applied to a line headed by its entry. Residues count along the entry.
UniProt Q3URK3, whole entry, looked up, stated change not applied: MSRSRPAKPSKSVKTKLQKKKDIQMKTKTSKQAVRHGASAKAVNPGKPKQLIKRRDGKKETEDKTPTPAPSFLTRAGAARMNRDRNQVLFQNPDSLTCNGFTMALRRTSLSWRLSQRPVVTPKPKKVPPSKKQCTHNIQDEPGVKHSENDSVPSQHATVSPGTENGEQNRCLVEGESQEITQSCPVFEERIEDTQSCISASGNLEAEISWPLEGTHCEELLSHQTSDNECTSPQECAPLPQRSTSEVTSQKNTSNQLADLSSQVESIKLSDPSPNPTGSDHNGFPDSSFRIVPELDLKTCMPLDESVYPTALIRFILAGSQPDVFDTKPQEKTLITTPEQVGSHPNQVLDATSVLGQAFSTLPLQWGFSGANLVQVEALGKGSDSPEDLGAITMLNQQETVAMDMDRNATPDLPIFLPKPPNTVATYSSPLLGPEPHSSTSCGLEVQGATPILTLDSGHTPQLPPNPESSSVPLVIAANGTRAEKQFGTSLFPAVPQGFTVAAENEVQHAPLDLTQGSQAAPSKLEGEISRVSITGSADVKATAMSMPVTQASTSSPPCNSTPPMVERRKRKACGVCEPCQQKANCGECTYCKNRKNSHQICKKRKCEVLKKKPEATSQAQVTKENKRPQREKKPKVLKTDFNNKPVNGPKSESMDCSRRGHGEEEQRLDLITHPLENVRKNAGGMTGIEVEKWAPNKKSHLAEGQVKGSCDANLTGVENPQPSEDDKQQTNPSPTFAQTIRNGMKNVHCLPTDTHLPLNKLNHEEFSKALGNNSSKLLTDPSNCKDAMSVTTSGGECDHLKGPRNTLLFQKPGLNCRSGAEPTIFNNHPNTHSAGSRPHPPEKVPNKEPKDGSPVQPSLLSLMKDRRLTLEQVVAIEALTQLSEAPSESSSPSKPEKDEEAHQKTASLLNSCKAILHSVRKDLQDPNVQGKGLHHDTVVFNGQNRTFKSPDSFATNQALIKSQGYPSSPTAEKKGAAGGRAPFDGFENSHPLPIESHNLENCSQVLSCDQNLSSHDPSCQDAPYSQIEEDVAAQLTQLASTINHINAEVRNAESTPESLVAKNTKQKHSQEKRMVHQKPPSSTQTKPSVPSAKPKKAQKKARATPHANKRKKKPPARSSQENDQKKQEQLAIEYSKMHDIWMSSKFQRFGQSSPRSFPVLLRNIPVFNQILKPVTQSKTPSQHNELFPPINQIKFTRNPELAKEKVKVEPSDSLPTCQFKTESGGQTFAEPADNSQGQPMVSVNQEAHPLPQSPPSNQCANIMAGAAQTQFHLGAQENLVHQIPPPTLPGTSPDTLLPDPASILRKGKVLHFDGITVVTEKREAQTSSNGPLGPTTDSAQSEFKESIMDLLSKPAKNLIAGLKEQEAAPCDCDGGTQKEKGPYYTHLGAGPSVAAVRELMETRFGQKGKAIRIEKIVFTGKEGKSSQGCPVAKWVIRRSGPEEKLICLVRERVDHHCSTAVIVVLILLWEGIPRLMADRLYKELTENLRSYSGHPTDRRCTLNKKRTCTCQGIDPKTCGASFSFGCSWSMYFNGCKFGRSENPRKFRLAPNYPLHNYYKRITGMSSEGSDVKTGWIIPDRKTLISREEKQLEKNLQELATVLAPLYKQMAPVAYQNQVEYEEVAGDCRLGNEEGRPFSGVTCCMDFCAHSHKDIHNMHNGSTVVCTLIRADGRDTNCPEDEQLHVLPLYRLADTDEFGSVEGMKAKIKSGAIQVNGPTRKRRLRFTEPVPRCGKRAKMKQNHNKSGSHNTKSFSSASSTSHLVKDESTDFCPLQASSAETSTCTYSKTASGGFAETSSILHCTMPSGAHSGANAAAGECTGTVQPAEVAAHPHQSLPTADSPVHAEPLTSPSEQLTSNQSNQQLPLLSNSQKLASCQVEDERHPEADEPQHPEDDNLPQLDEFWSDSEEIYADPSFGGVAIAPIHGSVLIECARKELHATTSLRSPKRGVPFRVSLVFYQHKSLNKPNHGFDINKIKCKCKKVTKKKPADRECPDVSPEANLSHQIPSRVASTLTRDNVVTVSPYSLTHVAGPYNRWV
UniProt Q3URK3, 1-215: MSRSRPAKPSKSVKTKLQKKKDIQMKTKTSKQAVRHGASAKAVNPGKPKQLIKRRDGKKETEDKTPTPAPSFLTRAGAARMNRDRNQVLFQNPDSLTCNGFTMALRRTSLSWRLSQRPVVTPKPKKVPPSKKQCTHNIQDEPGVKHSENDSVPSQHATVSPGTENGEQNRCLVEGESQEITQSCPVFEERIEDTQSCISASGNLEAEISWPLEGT
UniProt Q3URK3, 1-321: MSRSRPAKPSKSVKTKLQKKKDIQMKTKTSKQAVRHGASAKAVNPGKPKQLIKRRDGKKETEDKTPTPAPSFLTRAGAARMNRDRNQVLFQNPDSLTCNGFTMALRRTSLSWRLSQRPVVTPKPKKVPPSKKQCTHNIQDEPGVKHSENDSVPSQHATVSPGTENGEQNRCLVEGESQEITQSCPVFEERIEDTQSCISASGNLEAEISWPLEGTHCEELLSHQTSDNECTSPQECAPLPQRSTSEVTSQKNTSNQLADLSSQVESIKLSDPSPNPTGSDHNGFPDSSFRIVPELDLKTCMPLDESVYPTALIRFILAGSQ
UniProt Q3URK3, 1-631: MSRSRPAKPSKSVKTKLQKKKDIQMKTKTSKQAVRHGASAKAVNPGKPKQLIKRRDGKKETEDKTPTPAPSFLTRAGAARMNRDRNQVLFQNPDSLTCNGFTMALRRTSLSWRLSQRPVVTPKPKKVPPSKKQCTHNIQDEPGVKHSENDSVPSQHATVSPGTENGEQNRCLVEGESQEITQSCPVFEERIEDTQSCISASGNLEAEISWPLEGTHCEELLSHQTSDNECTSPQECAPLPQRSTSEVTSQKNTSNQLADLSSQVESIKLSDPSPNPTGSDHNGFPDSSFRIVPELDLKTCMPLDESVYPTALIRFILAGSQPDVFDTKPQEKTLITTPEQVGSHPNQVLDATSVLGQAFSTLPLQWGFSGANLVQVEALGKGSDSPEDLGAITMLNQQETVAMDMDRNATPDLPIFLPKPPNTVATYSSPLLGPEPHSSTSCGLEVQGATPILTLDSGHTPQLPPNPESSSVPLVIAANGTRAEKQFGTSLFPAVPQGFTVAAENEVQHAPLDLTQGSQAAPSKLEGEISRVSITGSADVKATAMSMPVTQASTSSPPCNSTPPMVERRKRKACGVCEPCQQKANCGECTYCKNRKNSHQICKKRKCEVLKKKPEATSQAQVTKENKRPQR
UniProt Q3URK3, 1-1472: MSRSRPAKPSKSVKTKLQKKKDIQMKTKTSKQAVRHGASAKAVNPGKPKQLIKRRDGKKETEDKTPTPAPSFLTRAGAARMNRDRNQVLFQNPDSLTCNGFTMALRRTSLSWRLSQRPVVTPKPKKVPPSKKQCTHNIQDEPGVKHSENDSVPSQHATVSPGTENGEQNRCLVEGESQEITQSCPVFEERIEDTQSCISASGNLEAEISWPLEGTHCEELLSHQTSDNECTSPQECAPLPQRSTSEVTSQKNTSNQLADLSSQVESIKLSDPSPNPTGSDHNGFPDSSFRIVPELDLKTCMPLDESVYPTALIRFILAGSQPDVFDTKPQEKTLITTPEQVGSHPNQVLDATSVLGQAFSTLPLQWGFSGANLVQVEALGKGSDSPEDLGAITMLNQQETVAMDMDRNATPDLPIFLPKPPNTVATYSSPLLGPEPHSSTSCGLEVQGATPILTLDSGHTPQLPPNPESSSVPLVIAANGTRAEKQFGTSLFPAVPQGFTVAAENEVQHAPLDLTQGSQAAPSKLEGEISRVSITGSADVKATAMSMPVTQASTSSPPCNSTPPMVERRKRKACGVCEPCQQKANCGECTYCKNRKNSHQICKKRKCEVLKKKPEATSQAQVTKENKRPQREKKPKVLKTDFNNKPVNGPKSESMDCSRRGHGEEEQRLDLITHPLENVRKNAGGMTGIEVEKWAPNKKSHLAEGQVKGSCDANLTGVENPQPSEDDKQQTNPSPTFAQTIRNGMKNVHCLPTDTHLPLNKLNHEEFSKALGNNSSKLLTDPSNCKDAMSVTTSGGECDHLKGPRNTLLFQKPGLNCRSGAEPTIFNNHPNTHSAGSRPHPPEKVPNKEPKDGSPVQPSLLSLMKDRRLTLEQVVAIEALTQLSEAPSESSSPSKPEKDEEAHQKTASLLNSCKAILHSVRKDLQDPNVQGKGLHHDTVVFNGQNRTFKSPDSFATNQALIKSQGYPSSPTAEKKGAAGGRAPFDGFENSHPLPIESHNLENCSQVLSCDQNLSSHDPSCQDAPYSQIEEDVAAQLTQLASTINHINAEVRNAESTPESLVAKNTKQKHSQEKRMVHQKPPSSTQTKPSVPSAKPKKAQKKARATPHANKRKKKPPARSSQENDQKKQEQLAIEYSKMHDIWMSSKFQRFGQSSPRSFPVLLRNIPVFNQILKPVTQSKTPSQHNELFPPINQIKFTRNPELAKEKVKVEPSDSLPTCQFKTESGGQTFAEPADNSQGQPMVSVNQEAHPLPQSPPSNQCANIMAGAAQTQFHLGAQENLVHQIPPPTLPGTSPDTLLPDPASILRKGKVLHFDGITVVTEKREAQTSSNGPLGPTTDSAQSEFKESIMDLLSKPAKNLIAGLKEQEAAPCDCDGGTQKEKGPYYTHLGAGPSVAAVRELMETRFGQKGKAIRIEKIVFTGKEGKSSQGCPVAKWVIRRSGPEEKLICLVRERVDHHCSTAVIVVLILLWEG
UniProt Q3URK3, 1-1494: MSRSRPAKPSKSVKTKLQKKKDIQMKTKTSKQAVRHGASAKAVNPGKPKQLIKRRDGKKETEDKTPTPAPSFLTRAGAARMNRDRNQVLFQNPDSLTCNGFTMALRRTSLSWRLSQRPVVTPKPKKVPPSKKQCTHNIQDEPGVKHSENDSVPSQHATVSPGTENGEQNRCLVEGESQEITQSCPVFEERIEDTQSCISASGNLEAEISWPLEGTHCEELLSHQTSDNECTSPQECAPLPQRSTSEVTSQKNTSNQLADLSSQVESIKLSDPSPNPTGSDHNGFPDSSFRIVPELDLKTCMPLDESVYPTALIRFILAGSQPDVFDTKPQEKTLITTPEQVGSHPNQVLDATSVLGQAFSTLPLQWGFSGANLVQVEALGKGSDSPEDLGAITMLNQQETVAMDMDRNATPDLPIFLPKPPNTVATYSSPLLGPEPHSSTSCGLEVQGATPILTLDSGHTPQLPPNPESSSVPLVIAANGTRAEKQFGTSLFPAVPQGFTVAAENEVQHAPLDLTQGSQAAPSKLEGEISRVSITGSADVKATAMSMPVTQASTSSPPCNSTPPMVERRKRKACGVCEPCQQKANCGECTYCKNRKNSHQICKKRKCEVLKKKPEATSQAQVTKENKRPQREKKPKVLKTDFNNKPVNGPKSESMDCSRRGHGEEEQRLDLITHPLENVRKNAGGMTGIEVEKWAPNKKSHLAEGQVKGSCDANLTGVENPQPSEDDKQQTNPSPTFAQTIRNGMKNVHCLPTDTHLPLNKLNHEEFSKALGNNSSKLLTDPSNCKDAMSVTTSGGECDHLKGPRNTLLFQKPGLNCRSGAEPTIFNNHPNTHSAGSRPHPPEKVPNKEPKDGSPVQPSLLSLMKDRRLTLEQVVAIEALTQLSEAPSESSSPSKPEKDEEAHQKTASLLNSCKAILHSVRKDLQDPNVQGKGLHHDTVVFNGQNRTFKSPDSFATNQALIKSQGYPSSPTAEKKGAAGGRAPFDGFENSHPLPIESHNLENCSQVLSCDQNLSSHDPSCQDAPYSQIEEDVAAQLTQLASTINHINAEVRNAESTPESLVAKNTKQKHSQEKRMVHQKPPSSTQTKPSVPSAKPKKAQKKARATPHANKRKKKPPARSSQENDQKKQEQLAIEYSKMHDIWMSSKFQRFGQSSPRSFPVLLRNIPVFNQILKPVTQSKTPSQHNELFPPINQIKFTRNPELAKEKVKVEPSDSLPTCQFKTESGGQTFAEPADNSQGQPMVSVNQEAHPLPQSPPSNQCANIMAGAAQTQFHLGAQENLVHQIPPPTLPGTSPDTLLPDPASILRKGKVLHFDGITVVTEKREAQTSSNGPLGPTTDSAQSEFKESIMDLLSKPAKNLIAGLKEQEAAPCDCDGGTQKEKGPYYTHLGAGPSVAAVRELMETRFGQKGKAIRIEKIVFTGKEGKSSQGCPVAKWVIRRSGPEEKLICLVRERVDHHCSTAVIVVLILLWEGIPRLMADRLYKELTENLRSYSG

What all share (test): co-IP
Assay [1] addresses (Flag)3-TET1(734-1169) (mouse) (UniProt Q3URK3).
In assay [2] the target is (Flag)3-TET1 1-1494 (WT) (mouse) (UniProt Q3URK3).
The target in assay [3] is Full-length (Flag)3-TET1 Δ109-120 + Δ1132-1202 (Δ1+2) (mouse) (UniProt Q3URK3).
Assay [4] has as its target Full-length (Flag)3-TET1 triple mutant (Δ109-120 + Δ1132-1202 + 1522-1547 aromatic→A) (mouse) (UniProt Q3URK3).
The target in assay [5] is (Flag)3-TET1 1-321 (mouse) (UniProt Q3URK3).
For assay [6], the target named is (Flag)3-TET1 734-1202 (mouse) (UniProt Q3URK3).
Assay [7] deals with Full-length (Flag)3-TET1 Δ1733-1901 (Δlow) (mouse) (UniProt Q3URK3).
Assay [8] addresses (Flag)3-TET1 1-215 (mouse) (UniProt Q3URK3).
The target in assay [9] is (Flag)3-TET1 734-1181 (mouse) (UniProt Q3URK3).
For assay [10], the target named is (Flag)3-TET1 1-1521 Δ1+2 (mouse) (UniProt Q3URK3).
Assay [11] addresses (Flag)3-TET1 1-1472 (WT) (mouse) (UniProt Q3URK3).
In assay [12] the target is (Flag)3-TET1 1-1521 (WT) (mouse) (UniProt Q3URK3).
In assay [13] the target is (Flag)3-TET1 1-631 (mouse) (UniProt Q3URK3).
Assay [14] has as its target (Flag)3-TET1 734-1155 (mouse) (UniProt Q3URK3).

Results are given in words; binding and its absence hold for the method and conditions named. Binding seen in cells or lysates may run through a third protein. Some binding calls cover weakened binding; strength is not graded here. Sequences can lack the tags named with a protein.

B1: (HA)3-NANOG (protein, UniProt Q80Z64 1-305)
chain: MSVGLPGPHSLPSSEEASNSGNASSMPAVFHPENYSCLQGSATEMLCTEAASPRPSSEDLPLQGSPDSSTSPKQKLSSPEADKGPEEEENKVLARKQKMRTVFSQAQLCALKDRFQKQKYLSLQQMQELSSILNLSYKQVKTWFQNQRMKCKRWQKNQWLKTSNGLIQKGSAPVEYPSIHCSYPQGYLVNASGSLSMWGSQTWTNPTWSSQTWTNPTWNNQTWTNPTWSSQAWTAQSWNGQPWNAAPLHNFGEDFLQPYVQLQQNFSASDLEVNLEATRESHAHFSTPQALELFLNYSVTPPGEI
With B1, the binding result in assay [1] was “binds”; in assay [2], “binds weakly”; in assay [3], “binds”; in assay [4], “no binding”; in [5], “binds”; in assay [6], “binds”. Besides, the binding entry is listed as “binds” in assay [7]; “binds” in assay [8]; “binds” in assay [9]; “no binding” in assay [10]; “binds weakly” in assay [11]; “binds weakly” in assay [12]. In addition, the binding result is given as “binds” in assay [13] and “no binding” in [14].
